Literature values as cited in patent publication US6669963B1, “Stable particle in liquid formulations” (Elan Drug Delivery Limited, priority 1997, dated 2003).
Some entries share one result that the patent states for a list of compounds.

Test system: rats
Details: cited from earlier work

## CCCCCCCCCCCCCCCCCC(=O)OCC(O)CO (stereo not shown) [glycerol monostearate]
  oral LD50 in rats: > 15000 mg/kg
